The results in this text go back to article PMC6232491.

Test [1] has as its target SMV 6K1, bait of the split-ubiquitin membrane yeast two-hybrid (Soybean mosaic virus (SMV-L)). The test can be described thus: two-hybrid; split-ubiquitin membrane-based yeast two-hybrid, NMY51; SMV proteins as baits (pBT3-STE), GmSDL5A as prey (pPR3-N); medium lacking Leu, Trp, His and Ade, with 3AT.
Test [2] concerns the target SMV 6K2, bait of the split-ubiquitin membrane yeast two-hybrid (Soybean mosaic virus (SMV-L)). Described as above.
The target of test [3] is SMV CI, bait of the split-ubiquitin membrane yeast two-hybrid (Soybean mosaic virus (SMV-L)). The test is described as above.
In test [4] the target is SMV CP, bait of the split-ubiquitin membrane yeast two-hybrid (Soybean mosaic virus (SMV-L)). Described as above.
The target in test [5] is SMV HC-Pro, bait of the split-ubiquitin membrane yeast two-hybrid (Soybean mosaic virus (SMV-L)). The description is as above.
Test [6] addresses SMV NIa-Pro, bait of the split-ubiquitin membrane yeast two-hybrid (Soybean mosaic virus (SMV-L)). Described as above.
For test [7], the target named is SMV NIb, bait of the split-ubiquitin membrane yeast two-hybrid (Soybean mosaic virus (SMV-L)). The description is as above.
The target of test [8] is SMV P1, bait of the split-ubiquitin membrane yeast two-hybrid (Soybean mosaic virus (SMV-L)). The description is as above.
In test [9] the target is SMV P3, bait of the split-ubiquitin membrane yeast two-hybrid (Soybean mosaic virus (SMV-L)). Described as above.
In test [10] the target is SMV P3N-PIPO, bait of the split-ubiquitin membrane yeast two-hybrid (Soybean mosaic virus (SMV-L)). Described as above.
Test [11] deals with SMV VPg, bait of the split-ubiquitin membrane yeast two-hybrid (Soybean mosaic virus (SMV-L)). Described as above.
Test [12] deals with TuMV 6K2 in the membrane yeast two-hybrid (Turnip mosaic virus). The test can be described thus: two-hybrid; membrane yeast two-hybrid (mYTH) of AtDRP2A with each of 11 TuMV-encoded proteins; bait and prey not stated.
For test [13], the target named is TuMV CI in the membrane yeast two-hybrid (Turnip mosaic virus). Described as above.
Test [14] addresses TuMV CP in the membrane yeast two-hybrid (Turnip mosaic virus). Described as above.
For test [15], the target named is TuMV P1 in the membrane yeast two-hybrid (Turnip mosaic virus). The test is described as above.
The target in test [16] is TuMV VPg in the membrane yeast two-hybrid (Turnip mosaic virus). The test is described as above.
The target of test [17] is TuMV 6K2 with a 3× flag tag (Turnip mosaic virus). The test can be described thus: co-IP; TuMV proteins with C-terminal 3x flag and N-terminal YFP-AtDRP2A coexpressed in N. benthamiana leaves, 2.5 days postinfiltration; anti-Flag M2 affinity gel; blots with anti-Flag or anti-GFP.
Test [18] has as its target TuMV CI with a 3× flag tag (Turnip mosaic virus). Described as above.
Test [19] concerns the target TuMV CP with a 3× flag tag (Turnip mosaic virus). Described as above.
Test [20] has as its target TuMV VPg with a 3× flag tag (Turnip mosaic virus). Described as above.

Results are given in words; binding and its absence hold for the method and conditions named. For some assays here: Binding can be weak; no strength is given. For some assays here: Binding seen in cells or lysates may run through a third protein. For some assays here: Tags and fused reporters may be left off the sequences shown.

B1: GmSDL5A, prey of the split-ubiquitin membrane yeast two-hybrid (protein, UniProt Q39828 1-610)
chain: MENLISLVNKIQRACTALGDHGENSALPTLWDSLPAIAVVGGQSSGKSSVLESVVGKDFLPRGSGIVTRRPLVLQLHKIEEGSREYAEFLHLPRKRFTDFVAVRKEIQDETDRETGRTKQISTVPIHLSIYSPNVVNLTLVDLPGLTKVAVEGQPDSIVKDIEDMVRSYIEKPNCIILAISPANQDLATSDAIKISREVDPTGDRTIGVLTKIDLMDKGTDAVDILEGRAYRLKFPWIGVVNRSQQDINKNVDMIAARRREREYFNSTPEYKHLANRMGSEHLAKMLSKHLETVIKSKIPGIQSLINKTIAELEAELTRLGKPVAADAGGKLYAIMEICRSFDQIFKDHLDGVRPGGDKIYNVFDNQLPAALKRLQFDKQLSMENIRKLITEADGYQPHLIAPEQGYRRLIESSLITIRGPAEAAVDAVHSLLKDLVHKAISETLDLKQYPGLRVEVGAAAVDSLERMRDESKRATLQLVDMECGYLTVDFFRKLPQDVDKGGNPTHSIFDRYNDSYLRRIGTTILSYVNMVCATLRNSIPKSIVYCQVREAKRSLLDHFFTELGKMETKRLSSLLNEDPAIMERRSALAKRLELYRSAQAEIDAVAWSK
As for B1, the binding result is listed as “no binding” in test [1]; “no binding” in test [2]; “binds” in test [3]; “binds” in [4]; “no binding” in [5]; “no binding” in [6]. In addition, the binding result in [7] is reported as “no binding”; in [8], “no binding”; in [9], “no binding”; in test [10], “no binding”; in test [11] it was “binds”.

B2: AtDRP2A in the membrane yeast two-hybrid (protein, UniProt Q9SE83 1-914)
chain: MEAIDELSQLSDSMKQAASLLADEDPDETSSSKRPATFLNVVALGNVGAGKSAVLNSLIGHPVLPTGENGATRAPIIIELSRESSLSSKAIILQIDNKSQQVSASALRHSLQDRLSKGASGKNRDEINLKLRTSTAPPLKLVDLPGLDQRIVDESMIAEYAQHNDAILLVIVPASQASEISSSRALKIAKEYDPESTRTIGIIGKIDQAAENSKALAAVQALLSNQGPPKTTDIPWVAVIGQSVSIASAQSGSGENSLETAWRAESESLKSILTGAPQSKLGRIALVDTLASQIRSRMKLRLPSVLSGLQGKSQIVQDELARLGEQLVNSAEGTRAIALELCREFEDKFLLHLAGGEGSGWKVVASFEGNFPNRIKQLPLDRHFDLNNVKRVVLEADGYQPYLISPEKGLRSLIKIVLELAKDPARLCVDEVHRVLVDIVSASANATPGLGRYPPFKREVVAIASAALDGFKNEAKKMVVALVDMERAFVPPQHFIRLVQRRMERQRREEELKGRSSKKGQDAEQSLLSRATSPQPDGPTAGGSLKSMKDKPSPQDKETPEVSGLKTAGPEGEITAGYLMKKSAKTNGWSRRWFVLNEKTGKLGYTKKQEERNFRGTITLEECTIEEIPEDEVEKSKSSKDKKANGPDSKGPGLVFKITCKVPYKTVLKAHNALVLKAESVVDKNEWINKLQKVIQARGGQVGSVSMRQSLSEGSLDKMVRKPIDPEEELRWMSQEVRGYVEAVLNSLAANVPKAVVLCQVEKAKEDMLNQLYSSISAIGNERIESLIQEDQNVKRRRERYQKQSSLLSKLTRQLSIHDNRAAAASSYSDNSGTESSPRASGGSSGDDWMNAFNSAANGPSDSLSKYGSGGHSRRYSDPAQNGDAASPGSGSNRRTTPNRLPPAPPPTGSAYRY
As to B2, the binding result in test [12], in test [13], in test [14], in [15] and in [16] was “binds” in each case.

B3: YFP-AtDRP2A (protein, UniProt Q9SE83 1-914)
chain: B2 chain
For the molecule B3, the binding entry in test [17], in test [18], in [19] and in test [20] was “binds” in each case.
